Measured values from patent US20220346382A1, “COMPOSITION FOR TREATING AND PREVENTING BACTERIAL GROWTH ON A SUBSTRATE” (PETROLIAM NASIONAL BERHAD (PETRONAS), priority 2019, published 2022).

Test: Corrosion rate by weight loss and pitting of carbon steel coupons immersed in the formulations
Conditions: seven days immersion, versus control formulation

Substance: tetrakis hydroxymethyl phosphonium sulfate [THPS, reference compound]
- effect on corrosion rate: not effective to reduce the corrosion rate
